Measurements: PubChem BioAssay AID504834 (National Center for Advancing Translational Sciences (NCATS), 2011)
Hit rate of the full screen: of about 320,000 compounds, about 22,000 (6.9%) were called active. Inconclusive means that the source gave no clear call. Such entries were picked first, then a sample of the others. The call rests on the fitted dose curve; in most records, active means well fitted inhibition curve with a large enough effect; inconclusive means small, poorly fitted or top-dose-only effect, or another doubt; inactive means no such curve, though single readings can be large or run the other way. Potencies beside an inconclusive call are fits to weak or partial responses and may not hold up. Where a SMILES comes first, the peptide text is derived from it. The star is where a group is joined. Tos = Cc1ccc(S(=O)(=O)*)cc1

Experiment: Primary qHTS for delayed death inhibitors of the malarial parasite plastid, 96 hour incubation
Details: P. falciparum luciferase reporter growth; series mostly up to 28.7 µM; activity change, negative = inhibition: at the top concentration
Outline: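 Erythrocytes infected with luciferase-expressing P. falciparum were dispensed at 2% hematocrit and 0.05% parasitemia (final), then incubated with compounds 96 hours at 37 C in 5% CO2. Luminescence after detection reagent addition reported growth.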
On the % scale 0 is the no-effect control and ±100 the full control effect; potency means the concentration at half of the fitted maximal effect.

Row | Structure (SMILES) | Potency | activity change, negative = inhibition
1 | COC(=O)c1oc2nc(C)cc(C)c2c1N | inconclusive: 13.1 µM [inhibitor, single point] | –
2 | CC(=O)c1c(Cl)nc2cccc3c2c1-c1ccccc1C3=O | – | inactive: -2.01%
3 | O=C(Nc1ccc(N2CCOCC2)cc1)c1ccc(Cl)c(S(=O)(=O)N2CCCCC2)c1 | inconclusive: 14.7 µM [inhibitor, single point] | –
4 | COc1ccc(/C=N/NC(=O)c2ccco2)cc1COc1ccc(F)cc1 | inconclusive: 13.1 µM [inhibitor, single point] | –
5 | Cc1ccc(N2CCN(S(=O)(=O)N3CCOCC3)CC2)cc1C | – | inactive: -23.7%
6 | CC1(C)CC(NC(=O)c2ccc(Cl)c(Cl)c2)CC(C)(C)N1 | – | inactive: -80.7%
7 | COc1ccc(CNC(=O)CCNS(=O)(=O)c2ccc(Cl)cc2)cc1 | inconclusive: 18.5 µM [inhibitor, single point] | –
8 | Cc1ccc(C)c(Cn2nnc3c(=O)[nH]c(C4CCN(S(=O)(=O)c5ccc(S(=O)(=O)NC6CC6)cc5)CC4)nc32)c1 | – | inactive: -0.609%
9 | CCCCSc1nnc(CNC(=O)C23CC4CC(CC(C4)C2)C3)n1Cc1ccccc1 | inconclusive: 1.85 µM [inhibitor, full curve, poor fit] | –
10 | O=C(COc1ncnc2ccccc12)Nc1cc([N+](=O)[O-])ccc1Cl | inconclusive: 0.828 µM [inhibitor, single point] | –
11 | Cc1ccc(S(=O)(=O)N[C@@H](CO)C(=O)N[C@@H](Cc2ccc(O)cc2)C(=O)O)cc1 (Tos-Ser-Tyr-OH) | – | inactive: 35.4%
12 | C=CCNc1oc(-c2ccco2)nc1S(=O)(=O)c1ccccc1 | inconclusive: 11.7 µM [inhibitor, partial curve, poor fit] | –
13 | Cc1cc(NC(=O)CSCc2ccccc2C)no1 | inconclusive: 6.57 µM [inhibitor, partial curve, poor fit] | –
14 | CN1CCN(c2ccc(Cl)cc2NC(=O)/C=C/c2ccc(F)cc2)CC1 | inconclusive: 11.7 µM [inhibitor, single point] | –
15 | CCC(=O)NC(Cc1ccccc1)c1nc2ccccc2[nH]1 (stereo not given) | – | inactive: -14.1%
16 | CC(=O)c1ccc2noc(-c3cccc(C)c3)c2c1 | – | inactive: 14.3%
17 | CS(=O)(=O)N1CCN(c2ccc([N+](=O)[O-])c(NCc3ccc(Cl)cc3)c2)CC1 | inconclusive: 11.7 µM [inhibitor, partial curve, poor fit] | –
18 | CC(C)C(NS(=O)(=O)c1ccc2c(c1)C(C)(C)C(=O)N2C)C(=O)NCc1ccc(F)cc1 (stereo not given) | inconclusive: 18.5 µM [inhibitor, single point] | –
19 | COc1ccc(-c2nc3ccc(C4=C(C)CC(=O)NN4)cc3[nH]2)cc1 | active: 7.57 µM | –
20 | CCN(CC)CCCNc1nc2ccccc2[nH]1 | inconclusive: 18.5 µM [inhibitor, single point] | –
21 | N#CCO/N=C(\c1ccccc1)c1ccncc1 | inconclusive: 0.208 µM [inhibitor, partial curve, poor fit] | –
22 | Cc1ccc(-c2nc(CS(=O)CC(=O)NCCCc3ccccc3)c(C)o2)cc1 (stereo not given) | inconclusive: 4.65 µM [inhibitor, partial curve, poor fit] | –
23 | CC1CCc2c(nc3ncnn3c2N2CC(C)OC(C)C2)C1 (stereo not given) | inconclusive: 18.5 µM [inhibitor, single point] | –

Filtered by structure, those above containing a nitro group on carbon (two)
Row | Structure (SMILES) | Potency | activity change, negative = inhibition
10 | O=C(COc1ncnc2ccccc12)Nc1cc([N+](=O)[O-])ccc1Cl | inconclusive: 0.828 µM [inhibitor, single point] | –
17 | CS(=O)(=O)N1CCN(c2ccc([N+](=O)[O-])c(NCc3ccc(Cl)cc3)c2)CC1 | inconclusive: 11.7 µM [inhibitor, partial curve, poor fit] | –

(next part)

Row | Structure (SMILES) | Potency | activity change, negative = inhibition
24 | N#CC1=C(N)C(C#N)(C#N)C(c2cccnc2)C2CCCC=C12 (stereo not given) | – | inactive: -10.5%
25 | Cc1cc(C)nc(N(C#N)CC(=O)Nc2ccccc2)n1 | inconclusive: 11.7 µM [inhibitor, single point] | –
26 | COc1cccc(CN2CC(C(=O)NC3(c4ccccc4)CC3)CCC2=O)c1 (stereo not given) | – | inactive: -12.8%
27 | Cc1ncoc1C(=O)N1CCCC(C(=O)c2ccc(C(F)(F)F)cc2)C1 (stereo not given) | – | inactive: -6.6%
28 | COCCNC(=O)c1cc2ncc(Br)cn2n1 | – | inactive: 31.2%
29 | O=C(NCc1ccco1)c1cnn2cccnc12 | – | inactive: -0.435%
30 | Cc1cc(C)cc(NC(=O)Nc2ccccc2N2CCCCC2)c1 | inconclusive: 18.5 µM [inhibitor, single point] | –
31 | CCN1CCc2c(OCC(=O)N3CCc4ccccc43)cccc2C1=O | inconclusive: 0.262 µM [inhibitor, full curve, poor fit] | –
32 | CCOc1ccc(C(=O)C(C)OC(=O)Cn2c(C)csc2=O)cc1 (stereo not given) | – | inactive: 0%
33 | O=C(CN1CCOCC1)NCc1ccccc1 | inconclusive: 18.5 µM [inhibitor, single point] | –
34 | Cc1ccc(S(=O)(=O)Nc2ccc(N(C)S(=O)(=O)c3ccc(C)cc3)cc2)cc1 | inconclusive: 18.5 µM [inhibitor, single point] | –
35 | S=C(NCc1ccccc1)NC1CCCCC1 | – | inactive: 22.6%
36 | COc1cccc2c(=O)cc(C)n(CC(=O)Nc3ccc(C)c(C)c3)c12 | – | inactive: 0%
37 | CN1CCN(c2ccc(S(=O)(=O)N3CCCCC3)cc2NC(=O)c2ccc(F)cc2F)CC1 | inconclusive: 1.65 µM [inhibitor, partial curve, poor fit] | –
38 | CSc1ccc(C(=O)C2CCCN(Cc3cccc4nccnc34)C2)cc1 (stereo not given) | inconclusive: 14.7 µM [inhibitor, single point] | –
39 | CC1(C)CC(=O)C(C=NCCCN2CCOCC2)=C(O)C1 | inconclusive: 20.8 µM [inhibitor, partial curve, poor fit] | –
40 | Cc1ccccc1Cn1nc(C)c(NC(=O)c2sc3ccccc3c2Cl)c1C | inconclusive: 0.0415 µM [inhibitor, full curve, poor fit] | –
41 | COc1ccc(C2c3c(ccc4ccccc34)Oc3ncn4nc(-c5ccco5)nc4c32)cc1OC (stereo not given) | inconclusive: 2.08 µM [inhibitor, partial curve, poor fit] | –
42 | CC1C(=O)O[C@@H]2C[C@@H](C)[C@@H]3CCC(=O)[C@@]3(C)[C@@H](O)[C@H]12 (stereo not given in full) | – | inactive: 73.2%
43 | Cc1ccc(NC(=O)C(=O)NNC(=O)c2cccs2)cc1 | inconclusive: 1.31 µM [inhibitor, partial curve] | –
44 | O=C(Cc1ccc(Cl)cc1)NNC(=S)NC(=O)c1cccnc1 | active: 4.15 µM | –
45 | Cc1ccccc1N(C(=O)c1snc(C(N)=O)c1N)C(C(=O)NC1CCCCC1)c1ccc(O)cc1 (stereo not given) | inconclusive: 7.38 µM [inhibitor, partial curve, poor fit] | –
